Source: patent US20130040837, “APTAMER CELL COMPOSITIONS” (BRIGHAM AND WOMEN'S HOSPITAL, INC., published 2013)

By UniProt entry, the sequences of proteins in these tests, tags left out. Residues count along the entry.
UniProt P16109, 42-771: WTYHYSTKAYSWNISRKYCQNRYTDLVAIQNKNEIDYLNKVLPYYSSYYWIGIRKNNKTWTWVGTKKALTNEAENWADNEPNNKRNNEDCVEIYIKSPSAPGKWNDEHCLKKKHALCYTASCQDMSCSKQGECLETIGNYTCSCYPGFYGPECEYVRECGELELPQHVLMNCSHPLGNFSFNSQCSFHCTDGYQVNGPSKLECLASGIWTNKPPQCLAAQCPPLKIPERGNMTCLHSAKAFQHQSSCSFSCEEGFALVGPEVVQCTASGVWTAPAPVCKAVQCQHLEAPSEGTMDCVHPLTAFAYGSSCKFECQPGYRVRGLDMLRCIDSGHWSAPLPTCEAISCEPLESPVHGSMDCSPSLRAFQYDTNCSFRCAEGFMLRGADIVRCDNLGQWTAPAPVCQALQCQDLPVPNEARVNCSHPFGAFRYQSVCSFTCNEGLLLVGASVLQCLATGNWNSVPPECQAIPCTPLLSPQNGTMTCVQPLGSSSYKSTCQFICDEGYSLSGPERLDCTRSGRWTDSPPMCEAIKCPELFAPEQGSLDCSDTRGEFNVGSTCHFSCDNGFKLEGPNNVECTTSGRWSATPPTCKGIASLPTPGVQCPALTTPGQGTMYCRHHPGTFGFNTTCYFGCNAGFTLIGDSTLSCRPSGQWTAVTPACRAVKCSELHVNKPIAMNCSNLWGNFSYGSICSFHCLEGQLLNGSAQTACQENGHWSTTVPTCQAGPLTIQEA
UniProt P16109, 42-830: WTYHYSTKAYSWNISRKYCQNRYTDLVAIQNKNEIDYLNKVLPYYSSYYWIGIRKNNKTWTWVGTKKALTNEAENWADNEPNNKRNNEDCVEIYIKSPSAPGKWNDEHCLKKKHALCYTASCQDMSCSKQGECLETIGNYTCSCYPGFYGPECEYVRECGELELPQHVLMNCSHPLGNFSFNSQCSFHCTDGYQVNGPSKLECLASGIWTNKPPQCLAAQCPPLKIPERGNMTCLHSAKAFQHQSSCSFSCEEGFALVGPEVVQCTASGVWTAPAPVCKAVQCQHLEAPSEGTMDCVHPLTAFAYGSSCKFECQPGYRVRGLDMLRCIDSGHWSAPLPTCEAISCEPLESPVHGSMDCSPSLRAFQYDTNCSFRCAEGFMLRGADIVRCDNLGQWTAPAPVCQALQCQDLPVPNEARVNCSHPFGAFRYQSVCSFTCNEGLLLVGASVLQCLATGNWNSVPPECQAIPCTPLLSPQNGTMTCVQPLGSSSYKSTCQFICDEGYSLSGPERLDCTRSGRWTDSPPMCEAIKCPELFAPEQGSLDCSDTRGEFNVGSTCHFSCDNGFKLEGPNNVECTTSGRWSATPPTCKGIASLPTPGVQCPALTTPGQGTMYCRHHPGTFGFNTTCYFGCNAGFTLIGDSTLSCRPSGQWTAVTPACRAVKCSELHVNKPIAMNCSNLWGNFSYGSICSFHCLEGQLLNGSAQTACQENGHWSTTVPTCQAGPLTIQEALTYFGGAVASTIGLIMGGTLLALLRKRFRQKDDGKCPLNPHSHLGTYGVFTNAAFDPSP

Legend:
Test in all cases: binding assay
[1] = test system: PDGF-GFP fusion secreted by MDA-MB-231 cells; conditions: sensor-MSCs in microwells, fluorescence decline correlates with number of PDGF-producing cells; no significant signal with native MDA-MB-231; protein in cells; protein details: GFP fusion; folded or branched DNA
P-selectin = P-selectin (UniProt P16109); conditions: 2'-F on C and U; static adhesion of aptamer-MSC, reference value; tethering under flow up to 0.75 dyn/cm2; 5 mM EDTA and free-aptamer blocking run as controls; purified recombinant protein; protein details: P-selectin-Fc, coated on surface; label: 5'-biotin
[2] = target: P-selectin on histamine-activated HUVEC (Homo sapiens) (UniProt P16109); conditions: 2'-F on C and U; about 60% of MSC retained on HUVEC up to 5 dyn/cm2; reduced when HUVEC pre-blocked with aptamer; protein on the cell surface; label: 5'-biotin
[3] = target: L-selectin on neutrophils/leukocytes (Homo sapiens) (UniProt P14151); conditions: protein on the cell surface, single-stranded DNA
L-selectin = L-selectin (UniProt P14151); conditions: 3' inverted T; static adhesion of aptamer-MSC to coated surface, reference value; also under flow; controls with 5 mM EDTA or free-aptamer blocking; purified recombinant protein; protein details: coated on surface; label: 5'-biotin; single-stranded DNA

Sequence: AAGGCTACGGCACGTAGAGCATCACCATGATCCTGTGTGGTCTGTGTCG / CGAACGACGACATAGACCACA [PDGF quench sensor Cy5/Iowa Black RQ]
- binding result [1]: binds

Sequence: CUCAACGAGCCAGGAACAUCGACGUCAGCAAACGCGAG [P-selectin aptamer]
- binding signal (P-selectin): 100%
- binding result [2]: binds

Sequence: GATGTAGGGACAGTCAAATGGAGTGGTTCAACCGCCCATCTTCAACAAT [scrambled sequence control DNA]
- binding result ([3]; minimal MSC/neutrophil interaction, label: 3'-biotin, variant of L-selectin aptamer): no binding

Sequence: TAGCCAAGGTAACCAGTACAAGGTGCTAAACGTAATGGCTTCGGCTTAC [L-selectin aptamer]
- binding signal (L-selectin): 100%
- binding result ([3]; 3' inverted T, L-Aptamer-MSC binds neutrophils/leukocytes, effective under flow at 0.5 dyn/cm2 or lower, blocked by free L-selectin aptamer, label: 5'-biotin): binds

For part of these data: Where cells or extracts were used, other partners may take part. For part of these data: No signal at the amounts used counts as a negative. For part of these data: For at least one entry, the source does not settle the construct or the ends of the probe. For part of these data: Whether high values mean tight binding is not given here for every scale.
